# The inconclusive results got no clear call from the source; some entries with a clear call stand among them for comparison. Entries that show only a call come without a potency. A potency beside an inconclusive call is a rough fit, not a confirmed value. The source made the active and inactive calls. Unless noted, the call rests on the fitted dose curve.
# Columns and labels:
# [1] = cAMP Responsive Elements (CRE) small molecule antagonists, cell-based qHTS assay (AID 1963591; active means well fitted inhibition curve with a large enough effect in the signal ratio in the repeat runs, not every such curve was filed as active; inconclusive means weak or mixed curves, or effect the other way; the % refers to the signal ratio); details: CRE-bla HEK293T, beta-lactamase FRET ratio; activity change, negative = inhibition: at 92.4 µM (top of the series) unless noted
# Procedure, shortened: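 CRE-bla HEK293T cells plated 18 h, then given compound plus NKH477 at 0.25 uM final for 3 h at 37C. Beta-lactamase reporter read with LiveBLAzer B/G FRET substrate after 2 h at room temperature.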
# [2] = molecular target: Beta-2 adrenergic receptor (Homo sapiens) (UniProt P07550); test: Adrenergic beta2 receptor (ADRB2) small molecule agonists, cell-based qHTS assay (AID 1963593); details: CHO-ADRB2 cells, cAMP HTRF, 30 min; activation: at 92.4 µM (top of the series) unless noted;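 on activation: CHO cells stably overexpressing human ADRB2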
# Procedure, shortened: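 CHO cells stably over-expressing ADRB2 were plated overnight at 37C, then dosed with compounds plus a stimulation mix containing 100uM IBMX and 25uM Ro-20-1724 for 0.5hr at room temperature. cAMP was measured by HTRF competition, 1hr.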
# Potency means the concentration at half of the fitted maximal effect.
Compound,"activity change, negative = inhibition [1]",activation [2],Potency [1],Potency [2]
COc1ccc(/C(C)=C/C(=O)O)c(OC)c1,inconclusive: 9.56% [at 42.4 µM],inconclusive: -38.9% [at 42.5 µM],,
CNS(=O)(=O)Cc1ccc2[nH]cc(CCN(C)C)c2c1,,inconclusive: -7% [at 42.5 µM],inactive,
C/C(=N/NC(=O)c1ccncc1)C(=O)O,inconclusive: 3.86% [at 42.4 µM],inconclusive: 20.8% [at 42.5 µM],,
CC(C)=CCCC(C)CC=O (stereo unspecified),,,inactive,inactive
CC(C)(C#N)Nc1nc(Cl)nc(NC2CC2)n1,inconclusive: 22.5%,inconclusive: 0.72%,,
N#CC1(N)CCCCC1,,,inactive,"inconclusive: 619 nM [inhibitor, single point]"
CCCC(=O)C(CC)Sc1ccoc1C (stereo unspecified),,,inactive,"inconclusive: 1090 nM [inhibitor, single point]"
COc1cc(C)ccc1O,inconclusive: -3.73%,inconclusive: 1.61%,,
CCCCCCCC/C=C\CCCCCCCC(=O)OC(CO)CO,,,inactive,inactive
Cc1onc(-c2ccccc2Cl)c1C(=O)N[C@@H]1C(=O)N2[C@@H]1SC(C)(C)[C@@H]2C(=O)O,,,inactive,inactive
O=c1[nH]ncc2ccccc12,,inconclusive: 38.1%,inactive,
CCCc1nn(C)c2c(=O)[nH]c(-c3cc(S(=O)(=O)N4CCN(C)CC4)ccc3OCC)nc12,,,inactive,inactive
COc1cc(OC)c(C(=O)CCCN2CCCC2)c(OC)c1,,,inactive,"inconclusive: 969 nM [inhibitor, single point] and inactive"
CC(=O)C1CCCCC1=O (stereo unspecified),,inconclusive: 5.06%,inactive,
Cc1ccc(C=O)cc1,,inconclusive: -0.657% [at 42.5 µM],inactive,
CN(Cc1cc(Br)cc(Br)c1N)C1CCCCC1,inconclusive: 5.76% [at 42.4 µM],,,inactive
COC(=O)c1ccc(I)cc1S(=O)(=O)NC(=O)Nc1nc(C)nc(OC)n1,,inconclusive: -30.5%,"inconclusive: 58500 nM [activator, single point]",
C=Cc1ccncc1,,,inactive,inactive
COc1cc(C(=S)N2CCOCC2)ccc1O,,,inactive,inactive

Compound,"activity change, negative = inhibition [1]",activation [2],Potency [1],Potency [2]
CCOC(=O)c1ncn2c1CN(C)C(=O)c1cc(F)ccc1-2,,,inactive,inactive
Cc1ccc(C(C)C)cc2c(C)ccc1-2,,inconclusive: -0.198% [at 42.5 µM],inactive,
C[C@@H](O)[C@H]1C(=O)N2C(C(=O)O)=C(S[C@@H]3CN[C@H](C(=O)N(C)C)C3)[C@H](C)[C@H]12,,inconclusive: 14.1% [at 42.5 µM],inactive,
Cc1ccc(NC(N)=O)cc1,,inconclusive: 35.5%,inactive,
Cc1cccc(Nc2ccccc2)c1,,,"inconclusive: 54500 nM [rising, partial curve]",inactive
CS(=O)(=O)c1ccc(-c2cn3ccccc3n2)cc1,,inconclusive: 3.92% [at 42.5 µM],inactive,
Cc1ccc(C)c(O)c1,inconclusive: -0.654%,,,inactive
C[C@H]1NCc2cc(-c3ccc4c(=O)c(C(=O)O)cn(C5CC5)c4c3OC(F)F)ccc21,,,inconclusive: 16400 nM [activator],inconclusive: 0.4 nM
CCOC(=O)CCCCCCCCC(=O)OCC,,,inactive,"inconclusive: 1220 nM [inhibitor, single point]"
OCCN1CN(CCO)CN(CCO)C1,inconclusive: -1.99%,,,"inconclusive: 1930 nM [inhibitor, partial curve]"
Cc1ccc(C)c(N)c1,,inconclusive: 2.93%,inactive,
CCNC(=O)C1CC(C)CCC1C(C)C (stereo unspecified),inconclusive: 5.76%,inconclusive: -2.35%,,
CN(C)c1ccncc1,,inconclusive: -4.73%,inactive,
N#[N+]c1ccc2c(S(=O)(=O)[O-])cccc2c1O,,inconclusive: -6.93%,inactive,
O=c1cc[nH]cc1,,inconclusive: -6.02%,inactive,
CCC(C)(CCCC(C)C)OC(C)=O (stereo unspecified),,,inactive,"inconclusive: 611 nM [inhibitor, single point]"
CCOC(=O)CCC(=O)OCC,inconclusive: -21.8%,,,inactive
CC(C)(C)OC=O,,,inactive,inactive
CCN(CC)C(=O)N(CC)CC,,inconclusive: 1.87%,inactive,

# Ordered by length of the SMILES (high to low): part of the list above
Compound,"activity change, negative = inhibition [1]",activation [2],Potency [1],Potency [2]
CCNC(=O)C1CC(C)CCC1C(C)C (stereo unspecified),inconclusive: 5.76%,inconclusive: -2.35%,,
CCC(C)(CCCC(C)C)OC(C)=O (stereo unspecified),,,inactive,"inconclusive: 611 nM [inhibitor, single point]"
CC(C)(C)OC=O,,,inactive,inactive
